Source: article PMC10716047
Results are given in words; binding and its absence hold for the method and conditions named. In cells and extracts the contact can be indirect. For some assays here: Binding can be weak; no strength is given. Sequences can lack the tags named with a protein.

Assays:
[1] = target: FLAG-tagged SMIMP deletion mutant M4 (amino acids 16–20 deleted) (human); assay: co-IP; HEK293FT cells cotransfected with HA-tagged SMC1A (wild type or truncation) and FLAG-tagged SMIMP (wild type or deletion mutant), lysates immunoprecipitated with anti-FLAG antibody, immunoblot
[2] = target: FLAG-tagged wild-type SMIMP (human); assay: as above

B1: hemagglutinin (HA)-tagged wild-type (WT) SMC1A (protein, UniProt Q14683 1-1233)
chain: MGFLKLIEIENFKSYKGRQIIGPFQRFTAIIGPNGSGKSNLMDAISFVLGEKTSNLRVKTLRDLIHGAPVGKPAANRAFVSMVYSEEGAEDRTFARVIVGGSSEYKINNKVVQLHEYSEELEKLGILIKARNFLVFQGAVESIAMKNPKERTALFEEISRSGELAQEYDKRKKEMVKAEEDTQFNYHRKKNIAAERKEAKQEKEEADRYQRLKDEVVRAQVQLQLFKLYHNEVEIEKLNKELASKNKEIEKDKKRMDKVEDELKEKKKELGKMMREQQQIEKEIKEKDSELNQKRPQYIKAKENTSHKIKKLEAAKKSLQNAQKHYKKRKGDMDELEKEMLSVEKARQEFEERMEEESQSQGRDLTLEENQVKKYHRLKEEASKRAATLAQELEKFNRDQKADQDRLDLEERKKVETEAKIKQKLREIEENQKRIEKLEEYITTSKQSLEEQKKLEGELTEEVEMAKRRIDEINKELNQVMEQLGDARIDRQESSRQQRKAEIMESIKRLYPGSVYGRLIDLCQPTQKKYQIAVTKVLGKNMDAIIVDSEKTGRDCIQYIKEQRGEPETFLPLDYLEVKPTDEKLRELKGAKLVIDVIRYEPPHIKKALQYACGNALVCDNVEDARRIAFGGHQRHKTVALDGTLFQKSGVISGGASDLKAKARRWDEKAVDKLKEKKERLTEELKEQMKAKRKEAELRQVQSQAHGLQMRLKYSQSDLEQTKTRHLALNLQEKSKLESELANFGPRINDIKRIIQSREREMKDLKEKMNQVEDEVFEEFCREIGVRNIREFEEEKVKRQNEIAKKRLEFENQKTRLGIQLDFEKNQLKEDQDKVHMWEQTVKKDENEIEKLKKEEQRHMKIIDETMAQLQDLKNQHLAKKSEVNDKNHEMEEIRKKLGGANKEMTHLQKEVTAIETKLEQKRSDRHNLLQACKMQDIKLPLSKGTMDDISQEEGSSQGEDSVSGSQRISSIYAREALIEIDYGDLCEDLKDAQAEEEIKQEMNTLQQKLNEQQSVLQRIAAPNMKAMEKLESVRDKFQETSDEFEAARKRAKKAKQAFEQIKKERFDRFNACFESVATNIDEIYKALSRNSSAQAFLGPENPEEPYLDGINYNCVAPGKRFRPMDNLSGGEKTVAALALLFAIHSYKPAPFFVLDEIDAALDNTNIGKVANYIKEQSTCNFQAIVISLKEEFYTKAESLIGVYPEQGDCVISKVLTFDLTKYPDANPNPNEQ
Q: B1 was tested. Which binding [1] did it give?
A: Its binding is “no binding”.

Q: And the binding [2]?
A: The binding was “binds”.
